Measured values: PMC7862700
The list shows a part of the results, in another mix than the full data. At the low end of the ranking the order means little.

Target: SPI1 (UniProt P17947)
Test: DAPPL (digital affinity profiling via proximity ligation, sequencing)
Conditions: 10 mM Tris-HCl pH 7.5, 50 mM NaCl, 1 mM DTT, 4% glycerol, room temperature, 30 min; GST-TFs on glutathione beads, 16-mer random dsDNA library, 0.1% …; high values mean tight binding; double strand, one strand shown; scale: fold enrichment (6-mer frequency, TF over GST control)

Sequence | binding signal
ACCGTA | 0.881
ACTGTG | 0.497
TAGGAG | 0.387
TCGGAT | 0.526
CGGGAT | 0.612
CCGGAG | 0.498
ACGGGA | 0.639
GACGGC | 0.718
AGAGCC | 0.64
AGAGGT | 0.744
GAGCGC | 0.536
CAAGTG | 0.665
GCCACG | 0.894
TCGGAC | 0.372
TGAGGC | 0.457
GACTGA | 0.767
CCGAGG | 0.667
GGTCGC | 0.848
TCGGTC | 0.573
AACAGT | 0.643
GGGACC | 0.689
AGATTG | 0.784
TGTCGG | 0.373
GGGCGA | 0.8

Sequence | binding signal
GTGAAA | 0.839
GAAGAC | 0.868
TCAGAA | 0.943
GGTGAA | 0.741
GGTCAA | 0.882
GGGTAC | 0.943
AGCCGT | 0.423
GGGTGG | 0.73
TCGGAA | 0.515
TAGGCG | 0.62
CAACGT | 0.805
ACCGGG | 0.45
GGCAAG | 0.704
GCCAGC | 0.771
GGAGGT | 0.348
TAGAGC | 0.753
GGAGAC | 0.153
GAGCAC | 0.727
ATCCAG | 0.817
TGCCAG | 0.653
CCAGAC | 0.659
GAGGCT | 0.489
ACGTGG | 0.532
CAGTGT | 0.652

Reprinted at random: 6 records from the list, in no set order.
Sequence | binding signal
GGGACC | 0.689
GGGTAC | 0.943
GACGGC | 0.718
ACGGGA | 0.639
GGTCGC | 0.848
TGAGGC | 0.457

Copied from the list.
binding signal, ACGTGG is entered as 0.532
binding signal, GGGTGG is entered as 0.73

The list continues:

Sequence | binding signal
TTGAGT | 0.648
CATGGA | 0.868
AGGCCA | 0.676
GACACC | 0.871
GGAACC | 0.922
GTGTAG | 0.687
ACGGAC | 0.788
AACCAG | 0.795
GATGAG | 0.867
CGCGGG | 0.759
GGTGCT | 0.852
AGTCGG | 0.163
AACGTG | 0.377
GACAGT | 0.446
GAGGGC | 0.659
TGGGCC | 0.902
GGGATG | 0.989
CTGTCG | 0.546
GGAGGC | 0.218
GGGGCG | 0.582
GGTCAG | 0.559
GTGTCG | 0.609
AGGACT | 0.831
GAGAGT | 0.346

Sequence | binding signal
GCATGA | 0.781
TGAAGT | 0.829
GACTGG | 0.576
GTCGCT | 0.798
CAGGAC | 0.692
GGTGGA | 0.579
GCCCAG | 0.67
GCATGC | 0.827
GGAGAT | 0.286
GGGAAT | 0.839
CGCAGT | 0.783
TGCGTG | 0.649
GACGCT | 0.735
CAGAGC | 0.771
TGCCGT | 0.786
CGGACG | 0.459
AAAGTG | 0.974
GCACCA | 0.792
GGGTGC | 0.734
AGAAAG | 0.912
GGTGAG | 0.357
TGAGTC | 0.192
AGGAGC | 0.38
AGTTGG | 0.559

Sequence | binding signal
GCGTGG | 0.527
GGCACG | 0.757
GCCATG | 0.797
CGGGAA | 0.872
ATCAGG | 0.902
GATTGA | 0.919
ACGAGA | 0.622
GTGATA | 0.726
GGACGT | 0.562
AGGCGT | 0.492
GAAGAG | 0.924
AAGGAC | 0.777
GTGGGA | 0.62
GCGGGT | 0.575
ACCGAG | 0.735
GTTCGG | 0.6
GTCTGC | 0.903
AAGACA | 0.946
GGTCCG | 0.766
GTCAGA | 0.71
GACGCG | 0.664
AGGTGA | 0.529
GGAGTC | 0.21
